PubChem BioAssay AID1224828 – NIAID, 2016
Here is one part, drawn at random, of about 17,000 reagents tested. 762 of all reagents (4.5%) count as active. 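Active calls include both raised and lowered p65 entry, mostly lowered; wells with fewer than 50 cells lack a z-score.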 The raw values are shown without normalisation. A number with no mark means an inactive call. Reagents against one gene are numbered here. A reagent listed more than once was tested more than once; the source does not tell the runs apart.

Purpose: 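Find genes required for NF-kappaB p65 moving into the nucleus after LPS in mouse macrophages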 (primary screen)
Cells: mouse RAW264.7 G9 macrophage reporter cells (GFP-p65, Tnf promoter-mCherry)
Knock-down reagent: siRNA pool against mouse genes, 100 nM
Duration: 2 days siRNA transfection, then 40 min LPS before fixation
Treatment: LPS (Salmonella minnesota R595) at 10 ng/ml
Read-out: 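Microscopy ratio of nuclear to perinuclear-ring GFP-p65 signal, scaled to the plate median; gene score is the average of two replicate robust z-scores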
Direction: p65 translocation robust z-score: higher = more nuclear NF-kappaB p65 after LPS than the plate median; nuclear/cytoplasmic p65 ratio: higher = more nuclear NF-kappaB p65
Hit rule: 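Called active when z exceeds 3.3 or falls under -1.56 (median of Tlr4 controls), giving activity score of at least 50; no calls for control wells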
Calls: active = hit (p65 shift raised or lowered); inactive = no clear change

target | reagent no. | p65 translocation robust z-score | nuclear/cytoplasmic p65 ratio, rep 1 | nuclear/cytoplasmic p65 ratio, rep 2 | low cell count flag
Epb41l5 (erythrocyte membrane protein band 4.1 like 5) | 1 | 1.43 | 1.82 | 1.64 | enough cells to score
Rab20 (RAB20, member RAS oncogene family) | 1 | -0.07 | 1.55 | 1.46 | enough cells to score
Adgrl1 (adhesion G protein-coupled receptor L1) | 1 | 0.09 | 1.45 | 1.67 | enough cells to score
Tmprss7 (transmembrane serine protease 7) | 1 | -0.13 | 1.54 | 1.54 | enough cells to score
Yif1a (Yip1 interacting factor homolog A (S. cerevisiae)) | 1 | -0.08 | 1.33 | 1.31 | enough cells to score
Atxn7l1 (ataxin 7-like 1) | 1 | -0.49 | 1.2 | 1.23 | enough cells to score
Ift43 (intraflagellar transport 43) | 1 | -0.41 | 1.34 | 1.22 | enough cells to score
Gamt (guanidinoacetate methyltransferase) | 1 | 0.04 | 1.45 | 1.36 | enough cells to score
Phc2 (polyhomeotic 2) | 1 | 0.32 | 1.59 | 1.41 | enough cells to score
Csf2rb | 1 | -0.33 | 1.36 | 1.4 | enough cells to score
Dgcr8 (DGCR8, microprocessor complex subunit) | 1 | -1.51 | 1.38 | 1.3 | enough cells to score
Slc39a1 | 1 | – | 1.91 | 1.56 | fewer than 50 cells per well; well left out of scoring
Tmt1a2 (thiol methyltransferase 1A2) | 1 | – | 1.22 | 1.22 | fewer than 50 cells per well; well left out of scoring
Ppfia4 | 1 | -0.55 | 1.49 | 1.27 | enough cells to score
Bnip2 (BCL2/adenovirus E1B interacting protein 2) | 1 | -0.56 | 1.56 | 1.5 | enough cells to score
Cd200 (CD200 molecule) | 1 | 0.64 | 1.44 | 1.5 | enough cells to score
Syn3 (synapsin III) | 1 | – | 1.28 | 1.32 | fewer than 50 cells per well; well left out of scoring
Ipo4 (importin 4) | 1 | -0.7 | 1.53 | 1.27 | enough cells to score
Ttc36 (tetratricopeptide repeat domain 36) | 1 | -0.63 | 1.48 | 1.74 | enough cells to score
Pde9a (phosphodiesterase 9A) | 1 | -0.63 | 1.34 | 1.35 | enough cells to score
Ssx2ip (SSX family member 2 interacting protein) | 1 | 0.09 | 1.39 | 1.27 | enough cells to score
Adgre5 (adhesion G protein-coupled receptor E5) | 1 | 0.75 | 1.62 | 1.68 | enough cells to score
Or2a14 (olfactory receptor family 2 subfamily A member 14) | 1 | 1.67 | 1.7 | 1.43 | enough cells to score
Or52e4 (olfactory receptor family 52 subfamily E member 4) | 1 | 0.13 | 1.48 | 1.28 | enough cells to score
Grin2a (glutamate receptor, ionotropic, NMDA2A (epsilon 1)) | 1 | -0.26 | 1.38 | 1.36 | enough cells to score
B4galt7 (beta-1,4-galactosyltransferase 7) | 1 | -0.58 | 1.6 | 1.46 | enough cells to score
Esam (endothelial cell-specific adhesion molecule) | 1 | -0.41 | 1.58 | 1.36 | enough cells to score
Rerg (RAS-like, estrogen-regulated, growth-inhibitor) | 1 | 0.18 | 1.41 | 1.26 | enough cells to score
Tc2n (tandem C2 domains, nuclear) | 1 | -0.47 | 1.63 | 1.59 | enough cells to score
Zfp1006 (zinc finger protein 1006) | 1 | 1.51 | 1.56 | 1.66 | enough cells to score
Cap1 (cyclase associated actin cytoskeleton regulatory protein 1) | 1 | 0.32 | 1.7 | 1.63 | enough cells to score
Cltb (clathrin light chain B) | 1 | -0.52 | 1.42 | 1.29 | enough cells to score
Zfp809 (zinc finger protein 809) | 1 | -1.17 | 1.5 | 1.53 | enough cells to score

Continued; the last 5 above are carried over.
target | reagent no. | p65 translocation robust z-score | nuclear/cytoplasmic p65 ratio, rep 1 | nuclear/cytoplasmic p65 ratio, rep 2 | low cell count flag
Tc2n (tandem C2 domains, nuclear) | 1 | -0.47 | 1.63 | 1.59 | enough cells to score
Zfp1006 (zinc finger protein 1006) | 1 | 1.51 | 1.56 | 1.66 | enough cells to score
Cap1 (cyclase associated actin cytoskeleton regulatory protein 1) | 1 | 0.32 | 1.7 | 1.63 | enough cells to score
Cltb (clathrin light chain B) | 1 | -0.52 | 1.42 | 1.29 | enough cells to score
Zfp809 (zinc finger protein 809) | 1 | -1.17 | 1.5 | 1.53 | enough cells to score
Prr5 (proline rich 5 (renal)) | 1 | -0.23 | 1.54 | 1.63 | enough cells to score
Fdft1 (farnesyl diphosphate farnesyl transferase 1) | 1 | -0.28 | 1.44 | 1.33 | enough cells to score
Pcare (photoreceptor cilium actin regulator) | 1 | -0.47 | 1.66 | 1.59 | enough cells to score
Nsmf | 1 | -1.13 | 1.62 | 1.4 | enough cells to score
Zbed3 (zinc finger, BED type containing 3) | 1 | – | 1.35 | 1.3 | fewer than 50 cells per well; well left out of scoring
Kat8 (K(lysine) acetyltransferase 8) | 1 | -0.75 | 1.67 | 1.51 | enough cells to score
Skor1 (SKI family transcriptional corepressor 1) | 1 | – | 1.28 | 1.63 | fewer than 50 cells per well; well left out of scoring
Thada (thyroid adenoma associated) | 1 | 0.71 | 1.55 | 1.54 | enough cells to score
Thada (thyroid adenoma associated) | 2 | 0.63 | 1.49 | 1.66 | enough cells to score
Slc5a2 | 1 | -0.34 | 1.47 | 1.47 | enough cells to score
Adipor1 (adiponectin receptor 1) | 1 | 2.83 | 1.74 | 1.88 | enough cells to score
Gna12 (guanine nucleotide binding protein, alpha 12) | 1 | 0.69 | 1.57 | 1.81 | enough cells to score
Or7g17 (olfactory receptor family 7 subfamily G member 17) | 1 | 0.65 | 1.56 | 1.32 | enough cells to score
Mrps27 (mitochondrial ribosomal protein S27) | 1 | -0.41 | 1.74 | 1.51 | enough cells to score
Rnf111 (ring finger protein 111) | 1 | -0.43 | 1.3 | 1.22 | enough cells to score
Sec22a (SEC22 homolog A, vesicle trafficking protein) | 1 | -0.22 | 1.37 | 1.24 | enough cells to score
Fbxl12 (F-box and leucine-rich repeat protein 12) | 1 | -1.96 (active) | 1.29 | 1.11 | enough cells to score
Or52a24 (olfactory receptor family 52 subfamily A member 24) | 1 | – | 1.72 | 1.58 | fewer than 50 cells per well; well left out of scoring
Caap1 (caspase activity and apoptosis inhibitor 1) | 1 | -1.85 (active) | 1.13 | 1.28 | enough cells to score
Stau2 (staufen double-stranded RNA binding protein 2) | 1 | 0.6 | 1.52 | 1.28 | enough cells to score
Stk40 (serine/threonine kinase 40) | 1 | 1.46 | 2.01 | 1.5 | enough cells to score
Stk40 (serine/threonine kinase 40) | 1 | – | 1.26 | 1.19 | fewer than 50 cells per well; well left out of scoring
Ube4b (ubiquitination factor E4B) | 1 | -0.06 | 1.55 | 1.45 | enough cells to score
Snrpg (small nuclear ribonucleoprotein polypeptide G) | 1 | – | 1.55 | 1.16 | fewer than 50 cells per well; well left out of scoring
Ptpn21 (protein tyrosine phosphatase, non-receptor type 21) | 1 | -1.14 | 1.33 | 1.27 | enough cells to score
Endog (endonuclease G) | 1 | – | 1.49 | 1.34 | fewer than 50 cells per well; well left out of scoring
